Results are given in words; binding and its absence hold for the method and conditions named. In cells and extracts the contact can be indirect. Some results given as binding are weak or reduced against the parent protein; the word gives no strength.
Columns and labels:
[1] = target: Ubiquitin specific peptidase 16 (mouse (endogenous in RAW264.7 and J774A.1)) (UniProt Q99LG0); experiment: co-IP; lysates of RAW264.7 and J774A.1 macrophages in IP lysis buffer, anti-USP16 (1 ug) conjugated to Protein A/G magnetic beads (Pierce Crosslink Magnetic co-IP Kit), 4 °C overnight; western blot; normal IgG as negative control
GST-tagged USP16 = GST-tagged USP16 (UniProt Q99LG0); experiment: pull-down; GST-tagged USP16 from E. coli immobilized to glutathione agarose (Pierce GST Pull-Down Kit), incubated with RAW264.7 or J774A.1 cell lysates; western blot; GST tag alone as negative control; only the target purified

Amino acid sequences for entries named in this document (tags omitted). A change or cut given only in a name is not applied to a line headed by its entry.
UniProt Q99LG0: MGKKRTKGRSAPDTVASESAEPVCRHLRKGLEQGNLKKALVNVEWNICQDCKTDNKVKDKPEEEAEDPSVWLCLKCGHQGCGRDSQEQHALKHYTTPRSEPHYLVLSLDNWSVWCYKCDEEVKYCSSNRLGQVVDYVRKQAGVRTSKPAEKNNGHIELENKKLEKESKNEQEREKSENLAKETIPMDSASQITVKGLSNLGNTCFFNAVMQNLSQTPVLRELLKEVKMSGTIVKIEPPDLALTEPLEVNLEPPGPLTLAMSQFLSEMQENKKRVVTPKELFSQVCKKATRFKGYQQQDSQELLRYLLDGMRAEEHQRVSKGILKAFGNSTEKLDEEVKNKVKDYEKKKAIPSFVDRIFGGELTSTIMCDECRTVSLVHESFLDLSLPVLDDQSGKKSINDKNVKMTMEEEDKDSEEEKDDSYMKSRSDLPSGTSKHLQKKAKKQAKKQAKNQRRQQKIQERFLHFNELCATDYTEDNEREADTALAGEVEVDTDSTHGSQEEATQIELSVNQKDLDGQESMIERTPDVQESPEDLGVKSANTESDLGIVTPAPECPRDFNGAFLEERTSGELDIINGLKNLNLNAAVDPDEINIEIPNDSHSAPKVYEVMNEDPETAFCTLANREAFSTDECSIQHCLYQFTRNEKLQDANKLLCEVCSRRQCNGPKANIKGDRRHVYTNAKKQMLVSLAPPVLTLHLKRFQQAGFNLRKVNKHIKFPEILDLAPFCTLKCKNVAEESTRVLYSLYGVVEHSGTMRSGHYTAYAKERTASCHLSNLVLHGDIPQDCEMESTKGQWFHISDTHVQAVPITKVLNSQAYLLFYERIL
UniProt Q8K1M6: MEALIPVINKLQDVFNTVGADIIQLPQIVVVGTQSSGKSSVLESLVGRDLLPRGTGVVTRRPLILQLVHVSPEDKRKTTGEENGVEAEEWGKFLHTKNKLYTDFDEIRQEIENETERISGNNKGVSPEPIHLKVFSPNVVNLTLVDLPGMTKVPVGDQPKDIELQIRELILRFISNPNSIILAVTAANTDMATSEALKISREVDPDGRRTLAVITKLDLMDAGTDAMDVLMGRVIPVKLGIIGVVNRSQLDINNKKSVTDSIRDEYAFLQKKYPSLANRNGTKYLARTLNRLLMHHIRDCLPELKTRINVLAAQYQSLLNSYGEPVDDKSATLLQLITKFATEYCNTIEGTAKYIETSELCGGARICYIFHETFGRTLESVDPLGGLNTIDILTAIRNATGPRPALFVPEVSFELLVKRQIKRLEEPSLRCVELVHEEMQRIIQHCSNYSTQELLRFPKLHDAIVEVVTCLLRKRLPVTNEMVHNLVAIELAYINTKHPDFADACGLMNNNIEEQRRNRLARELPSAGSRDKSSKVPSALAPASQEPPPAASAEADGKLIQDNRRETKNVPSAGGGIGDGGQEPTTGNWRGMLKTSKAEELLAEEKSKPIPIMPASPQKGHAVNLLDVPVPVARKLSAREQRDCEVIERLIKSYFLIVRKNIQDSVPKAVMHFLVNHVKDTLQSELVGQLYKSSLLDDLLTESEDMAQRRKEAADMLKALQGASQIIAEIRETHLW

With “Dynamin-related protein 1 (from UniProt Q8K1M6 1-736)” the binding [1] was “binds” and the binding (GST-tagged USP16) was “binds”.
